PubChem BioAssay AID1259254 – NCATS, 2017
The whole screen tested about 59,000 reagents; below is a random part of them. About 1,550 of all reagents (2.6%) count as active. 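G2 share is only a proxy for re-replication; each gene was hit by three separate siRNAs, and active genes were retested.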 Raw values are not corrected between plates. Reagents against one gene are numbered here. Reagent sequences are not shown. Not stated in the record: the amount of reagent.

Assay: 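Genome-wide screen for genes that prevent DNA re-replication in cancer cells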 (primary screen)
System: human HCT116 colorectal cancer cells
Reagent: single siRNA against human genes
Time to read-out: 3 days
Read-out: 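Nuclei stained with Hoechst and imaged; cell-cycle phase assigned by DNA content; G2 share scaled per plate, non-targeting siRNA 0%, GMNN siRNA 100%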
Reading the numbers: G2 robust z-score and G2 cells, % of GMNN control: higher = more G2 cells, more excess DNA replication; raw share of cells in G2: higher = larger share of cells with G2 DNA content
Call rule: 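Active siRNAs have a G2 robust z of 5 or more median absolute deviations over the median, which in these data means about 38% or higher of GMNN control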

Target gene	siRNA no.	G2 robust z-score	G2 cells, % of GMNN control	raw share of cells in G2 (%)	call
CEP85	1	-0.523	-0.713	4.27	inactive
CEP85	2	-0.0303	2.75	5.84	inactive
CEP85	3	2.33	19.4	7.81	inactive
EMC10	1	2.1	17.7	10.1	inactive
EMC10	2	3.33	26.4	13.3	inactive
EMC10	3	0.844	8.91	5.97	inactive
ENC1	1	0.947	9.63	8.15	inactive
ENC1	2	-0.358	0.451	5.42	inactive
ENC1	3	-0.15	1.91	5.4	inactive
ADAM28	1	-0.504	-0.579	5.36	inactive
ADAM28	2	-0.735	-2.2	4.13	inactive
ADAM28	3	-0.791	-2.6	2.94	inactive
BCL3	1	2.86	23.1	16.1	inactive
BCL3	2	1.04	10.3	7.85	inactive
BCL3	3	1.33	12.3	8.35	inactive
DPRX	1	0.789	8.52	6.91	inactive
DPRX	2	1.15	11.1	7.62	inactive
DPRX	3	2.46	20.3	10	inactive
SHMT1	1	12	87.5	35.1	active
SHMT1	2	1.43	13	9	inactive
SHMT1	3	-0.585	-1.15	3.58	inactive
IDH3B	1	2.95	23.7	13.7	inactive
IDH3B	2	-0.424	-0.0151	5.68	inactive
IDH3B	3	0.765	8.35	7.26	inactive

Continued (6 carried over from the part before).
Target gene	siRNA no.	G2 robust z-score	G2 cells, % of GMNN control	raw share of cells in G2 (%)	call
SHMT1	1	12	87.5	35.1	active
SHMT1	2	1.43	13	9	inactive
SHMT1	3	-0.585	-1.15	3.58	inactive
IDH3B	1	2.95	23.7	13.7	inactive
IDH3B	2	-0.424	-0.0151	5.68	inactive
IDH3B	3	0.765	8.35	7.26	inactive
ANKFY1	1	-0.453	-0.222	3.52	inactive
ANKFY1	2	0.0709	3.47	5.73	inactive
ANKFY1	3	0.368	5.56	5.03	inactive
ZNF598	1	-0.406	0.113	5.72	inactive
ZNF598	2	-0.624	-1.43	4.35	inactive
ZNF598	3	0.979	9.86	8.2	inactive
BAZ2B-AS1	1	-0.105	2.23	4.49	inactive
BAZ2B-AS1	2	-0.943	-3.67	1.95	inactive
BAZ2B-AS1	3	-1.02	-4.18	1.93	inactive
CXorf66	1	-0.945	-3.68	2.72	inactive
CXorf66	2	5.73	43.3	22.2	active
CXorf66	3	1.38	12.7	9.31	inactive
AGPAT2	1	-1.26	-5.91	4.15	inactive
AGPAT2	2	0.754	8.27	9.29	inactive
AGPAT2	3	-0.242	1.26	4.25	inactive
NUAK2	1	0.561	6.92	7.74	inactive
NUAK2	2	3.01	24.1	14	inactive
NUAK2	3	2.18	18.3	9.53	inactive
C14orf93	1	1.11	10.8	9.28	inactive
C14orf93	2	0.276	4.91	6.81	inactive
C14orf93	3	0.195	4.34	3.84	inactive
PRMT8	1	-0.0352	2.72	7.62	inactive
PRMT8	2	-0.978	-3.92	3.04	inactive
PRMT8	3	0.0363	3.22	5.68	inactive
